The list does not hold the whole screen: it is rich in T/C values a quarter to a half above the control, in often repeated tests (any T/C) and in doses without a T/C. Further doses and runs are listed elsewhere. T/C: endpoint of the treated group in % of that of the vehicle group. Some entries give survivors of the animals treated and no T/C: the source files T/C as zero there, which appears to mark a toxic dose or a test without result, not a measured value. Some survivor counts are full or nearly so, which does not show that the dose was tolerated: the source hardly ever lists a survival T/C far under the control, and the zero likely stands for such cases as well. Survivors were counted at the toxicity check, usually on the fifth day, unless a day is given; later deaths do not show. Schedules are NCI's codes, taken here to give the interval after Q, in days (D) or hours (H), and the number of doses after X. Where survival is the endpoint, this PubChem deposit counts one and a half times the control or more as active, and values a quarter to a half above the control carry no call in these data; other NCI protocols may use other cut-offs. Some entries were tested several times; the values are given in rising order. Some T/C values are followed by the survivors on the day toxicity was checked, most often the fifth; where none is given, no animal had died by that day.
System: BDF1 mice, P388 leukemia ip, median survival T/C
Assay: NCI In Vivo Anticancer Drug Screen. Data for tumor model P388 Leukemia (intraperitoneal) in B6D2F1 (BDF1) mice
Details: T/C endpoint: median survival time, higher T/C = longer survival
How it was run: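 Transplantable tumour in mice; compound vs vehicle dosing; survival scored; ratio of treated to control reported.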

In the case of `O=NN(CCCl)C(=O)NC1CCCCC1`, the T/C (dose: 5.5 mg/kg/injection, schedule: Q01DX009 (ip), vehicle: Klucel (hydroxypropylcellulose) (HPC)) is reported as 132 % of control, the T/C (dose: 8.2 mg/kg/injection, schedule: Q01DX009 (ip), vehicle: Klucel (hydroxypropylcellulose) (HPC)) is reported as 144 % of control and the survivor count (dose: 25.0 mg/kg/injection, schedule: Q01DX009 (ip), vehicle: Klucel (hydroxypropylcellulose) (HPC)) is reported as 2 of 3. The T/C (dose: 50.0 mg/kg/injection, schedule: Q01DX009 (ip), vehicle: saline) was 132 % of control, the T/C (dose: 60.0 mg/kg/injection, schedule: Q01DX001 (ip), vehicle: saline) was 146 % of control and the T/C (dose: 100.0 mg/kg/injection, schedule: Q01DX001 (ip), vehicle: Klucel (hydroxypropylcellulose) (HPC)) was 137 % of control. The survivor count (dose: 100.0 mg/kg/injection, schedule: Q01DX009 (ip), vehicle: Klucel (hydroxypropylcellulose) (HPC)) was 3 of 3, the T/C (dose: 135.0 mg/kg/injection, schedule: Q01DX001 (oral), vehicle: carboxymethylcellulose (CMC)) was 135 % of control and the survivor count (dose: 150.0 mg/kg/injection, schedule: Q01DX001 (ip), vehicle: carboxymethylcellulose (CMC)) was 10 of 10. The survivor count (dose: 200.0 mg/kg/injection, schedule: Q01DX001 (oral), vehicle: carboxymethylcellulose (CMC)) was 10 of 10, the survivor count (dose: 200.0 mg/kg/injection, schedule: Q01DX009 (ip), vehicle: Klucel (hydroxypropylcellulose) (HPC)) was 0 of 3 and the survivor count (dose: 400.0 mg/kg/injection, schedule: Q01DX009 (ip), vehicle: Klucel (hydroxypropylcellulose) (HPC)) was 0 of 3.
For `CC12C=CC(=O)C=C1CCC1C3CCC(O)(C(=O)CO)C3(C)CC(O)C12F` (stereo unspecified), the survivor count (dose: 335.0 mg/kg/injection, schedule: Q04DX003 (sc), vehicle: steroid suspending solution) was 5 of 6.
`CCc1cc2c(cc1C(=O)CBr)C(C)(C)CCC2(C)C` was tested, and the T/C (dose: 8.75 mg/kg/injection, schedule: Q04DX003 (ip), vehicle: Klucel (hydroxypropylcellulose) (HPC)) was 130 % of control, the T/C (dose: 17.5 mg/kg/injection, schedule: Q04DX003 (ip), vehicle: Klucel (hydroxypropylcellulose) (HPC)) was 135 % of control and the survivor count (dose: 75.0 mg/kg/injection, schedule: Q04DX003 (ip), vehicle: Klucel (hydroxypropylcellulose) (HPC)) was 6 of 6. The survivor count (dose: 115.0 mg/kg/injection, schedule: Q04DX003 (ip), vehicle: Klucel (hydroxypropylcellulose) (HPC)) was 6 of 6 and the survivor count (dose: 170.0 mg/kg/injection, schedule: Q04DX003 (ip), vehicle: Klucel (hydroxypropylcellulose) (HPC)) was 6 of 6.
In the case of `CCCn1c2nc(=O)[nH]c(=O)c-2[n+]([O-])c2ccccc21`, the survivor count (dose: 100.0 mg/kg/injection, schedule: Q01DX001 (ip), vehicle: saline with Tween-80) is reported as 0 of 6, the survivor count (dose: 200.0 mg/kg/injection, schedule: Q01DX001 (ip), vehicle: saline with Tween-80) is reported as 0 of 6 and the survivor count (dose: 400.0 mg/kg/injection, schedule: Q01DX001 (ip), vehicle: saline with Tween-80) is reported as 0 of 6.
For `O=c1c2ccccc2sc2c(CO)ccc(NCCN3CCCCC3)c12`, the T/C (dose: 400.0 mg/kg/injection, schedule: Q04DX003 (ip), vehicle: saline with Tween-80) was 126 and 144 % of control.
For `COc1ccc(C2=C[P+](c3ccccc3)(c3ccccc3)C=C(c3ccccc3)O2)cc1`, the survivor count (dose: 50.0 mg/kg/injection, schedule: Q01DX005 (ip), vehicle: saline with Tween-80) was 0 of 5, the survivor count (dose: 100.0 mg/kg/injection, schedule: Q01DX005 (ip), vehicle: saline with Tween-80) was 0 of 5 and the survivor count (dose: 200.0 mg/kg/injection, schedule: Q01DX005 (ip), vehicle: saline with Tween-80) was 0 of 5.
In the case of `OC(CCl)Cc1ccccc1` (stereo unspecified), the survivor count (dose: 100.0 mg/kg/injection, schedule: Q01DX009 (ip), vehicle: saline with Tween-80) is reported as 4 of 6.
For `CO/C(O)=c1/nc2c(n(C)c1=N)=CCCC2`, the survivor count (dose: 200.0 mg/kg/injection, schedule: Q01DX009 (ip), vehicle: saline with Tween-80) was 3 of 6.
`CC(C)CCCCCCCCCCCCC(=O)NCC(=O)NC1C(O)C(O)C(Nc2ncnc3nc[nH]c23)OC1C(O)CO` (stereo unspecified) was tested, and the T/C (dose: 0.04 mg/kg/injection, schedule: Q01DX010 (ip), vehicle: carboxymethylcellulose (CMC)) was 130 % of control [5 of 6 alive], the T/C (dose: 0.09 mg/kg/injection, schedule: Q01DX010 (ip), vehicle: steroid suspending solution) was 135 % of control and the T/C (dose: 0.18 mg/kg/injection, schedule: Q01DX010 (ip), vehicle: steroid suspending solution) was 140 % of control. For the same compound, the survivor count (dose: 0.25 mg/kg/injection, schedule: Q01DX010 (ip), vehicle: steroid suspending solution) was 6 of 6, the survivor count (dose: 0.5 mg/kg/injection, schedule: Q01DX010 (ip), vehicle: steroid suspending solution) was 6 of 6 and the T/C (dose: 0.75 mg/kg/injection, schedule: Q01DX010 (ip), vehicle: steroid suspending solution) was 140 % of control. For the same compound, the survivor count (dose: 1.0 mg/kg/injection, schedule: Q01DX010 (ip), vehicle: steroid suspending solution) was 6 of 6, the survivor count (dose: 1.5 mg/kg/injection, schedule: Q01DX010 (ip), vehicle: steroid suspending solution) was 6 of 6 and the survivor count (dose: 3.0 mg/kg/injection, schedule: Q01DX010 (ip), vehicle: steroid suspending solution) was 6 of 6.
